# Experimental data from patent publication US20250281502A1, “NEW DRUG APPLICATION” (Centre National de la Recherche Scientifique, priority 2021, published 2025).
# For at least one compound, name, drawing or mass did not settle the structure.
# Legend:
# [1] = tested on: Human Myeloma Cell Lines (HMCLs); assay: CellTiter-Glo cell viability, IC50 in human myeloma cell lines; format: cell-based
# Method: JJN3, OPM2, RPM18266, LP1, AMO1, SKMM2 human myeloma cell lines (HMCLs) were obtained from ATCC (Molshein, France) and were cultured in RPMI 1640 medium, supplemented with 10% fetal calf serum (Biochrom, Berlin, Germany) and 2 mM L-Glutamine. The interleukin-6-dependent cell lines XG1, XG2, XG6, XG7, XG12, XG19, XG20, XG21 were obtained as previously described and maintained in the presence of 2 ng/mL recombinant IL-6 (R&D Systems, Oxon, UK), 10% fetal calf serum and 2 mM L-Glutamine.
# Cells in culture were stained using trypan blue solution (Sigma-Aldrich, St. Louis MO, USA) and viable cells were counted under a light microscope. The CellTiter-Glo Luminescent Viability assay (Promega, Leiden, The Netherlands) was used to measure the effect on cell viability according to manufacturer's instructions, and the 50% inhibition (IC50) was determined using GraphPad Prism software (http://www.graphpad.com/scientific-software/prism/).
# [2] = tested on: primary MM cells from patients; assay: Primary patient samples, viable CD138+ MM cells by flow cytometry; format: cell-based, human; conditions: primary MM cells (n=12) co-cultured with bone marrow microenvironment
smiles,measurement,setting,value
Cc1[nH]c2ccccc2c1CCNCc1ccc(/C=C/C(=O)NO)cc1 [Panobinostat],sensitivity of HMCLs with high TRC score compared to low TRC score,[1],significantly more sensitive
same,toxicity in primary MM cells with high TRC score value,[2],higher toxicity
